This is one part of the list. Residues, ends and D or L forms follow the SMILES beside them. *: point of attachment. Cbz = O=C(OCc1ccccc1)*
Assays:
Assay in all cases: log2 fold change, soluble protein after heating vs DMSO (PISA); higher = thermal stabilisation; K562 cells, 10 uM, 30 min; active = over 0.2 and 3.5 SD of the protein, either way, in both replicates (recomputed)
erlotinib = compound: C#Cc1cccc(Nc2ncnc3cc(OCCOC)c(OCCOC)cc23)c1 [erlotinib]
In short: (§1)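 Soluble protein was quantified by TMTpro 16plex LC-MS/MS after channel sums were equalised. It was obtained as the supernatant after 21,000xg for 90 min from pooled aliquots of K562 cells (2×10^6 cells/mL, 10 μM compound, 30 min) heated for 3 min across 48°C-58°C and extracted in PBS with 0.5% NP-40 at 4°C. Thermal stability values are relative to control samples and come from duplicates. They are given as log2 fold changes.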

Amino acid sequences for entries named in this document (tags omitted). A change or cut given only in a name is not applied to a line headed by its entry.
UniProt O43678, whole entry, looked up: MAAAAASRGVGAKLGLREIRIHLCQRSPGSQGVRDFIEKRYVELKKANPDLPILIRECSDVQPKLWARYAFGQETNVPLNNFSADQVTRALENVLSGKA
UniProt P56181: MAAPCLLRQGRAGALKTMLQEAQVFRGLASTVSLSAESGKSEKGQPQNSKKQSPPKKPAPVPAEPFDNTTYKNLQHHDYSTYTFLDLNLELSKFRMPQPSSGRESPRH
UniProt O95298, whole entry, looked up: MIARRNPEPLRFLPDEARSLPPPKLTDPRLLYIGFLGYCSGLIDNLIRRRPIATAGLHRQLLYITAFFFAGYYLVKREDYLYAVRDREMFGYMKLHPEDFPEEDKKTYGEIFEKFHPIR
UniProt Q96NT1: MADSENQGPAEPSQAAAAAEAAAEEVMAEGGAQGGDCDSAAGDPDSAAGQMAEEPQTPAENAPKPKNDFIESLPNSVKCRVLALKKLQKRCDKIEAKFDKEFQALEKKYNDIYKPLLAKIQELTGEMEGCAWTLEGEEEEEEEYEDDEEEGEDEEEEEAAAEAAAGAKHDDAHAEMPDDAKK
UniProt E9PAV3, whole entry, looked up: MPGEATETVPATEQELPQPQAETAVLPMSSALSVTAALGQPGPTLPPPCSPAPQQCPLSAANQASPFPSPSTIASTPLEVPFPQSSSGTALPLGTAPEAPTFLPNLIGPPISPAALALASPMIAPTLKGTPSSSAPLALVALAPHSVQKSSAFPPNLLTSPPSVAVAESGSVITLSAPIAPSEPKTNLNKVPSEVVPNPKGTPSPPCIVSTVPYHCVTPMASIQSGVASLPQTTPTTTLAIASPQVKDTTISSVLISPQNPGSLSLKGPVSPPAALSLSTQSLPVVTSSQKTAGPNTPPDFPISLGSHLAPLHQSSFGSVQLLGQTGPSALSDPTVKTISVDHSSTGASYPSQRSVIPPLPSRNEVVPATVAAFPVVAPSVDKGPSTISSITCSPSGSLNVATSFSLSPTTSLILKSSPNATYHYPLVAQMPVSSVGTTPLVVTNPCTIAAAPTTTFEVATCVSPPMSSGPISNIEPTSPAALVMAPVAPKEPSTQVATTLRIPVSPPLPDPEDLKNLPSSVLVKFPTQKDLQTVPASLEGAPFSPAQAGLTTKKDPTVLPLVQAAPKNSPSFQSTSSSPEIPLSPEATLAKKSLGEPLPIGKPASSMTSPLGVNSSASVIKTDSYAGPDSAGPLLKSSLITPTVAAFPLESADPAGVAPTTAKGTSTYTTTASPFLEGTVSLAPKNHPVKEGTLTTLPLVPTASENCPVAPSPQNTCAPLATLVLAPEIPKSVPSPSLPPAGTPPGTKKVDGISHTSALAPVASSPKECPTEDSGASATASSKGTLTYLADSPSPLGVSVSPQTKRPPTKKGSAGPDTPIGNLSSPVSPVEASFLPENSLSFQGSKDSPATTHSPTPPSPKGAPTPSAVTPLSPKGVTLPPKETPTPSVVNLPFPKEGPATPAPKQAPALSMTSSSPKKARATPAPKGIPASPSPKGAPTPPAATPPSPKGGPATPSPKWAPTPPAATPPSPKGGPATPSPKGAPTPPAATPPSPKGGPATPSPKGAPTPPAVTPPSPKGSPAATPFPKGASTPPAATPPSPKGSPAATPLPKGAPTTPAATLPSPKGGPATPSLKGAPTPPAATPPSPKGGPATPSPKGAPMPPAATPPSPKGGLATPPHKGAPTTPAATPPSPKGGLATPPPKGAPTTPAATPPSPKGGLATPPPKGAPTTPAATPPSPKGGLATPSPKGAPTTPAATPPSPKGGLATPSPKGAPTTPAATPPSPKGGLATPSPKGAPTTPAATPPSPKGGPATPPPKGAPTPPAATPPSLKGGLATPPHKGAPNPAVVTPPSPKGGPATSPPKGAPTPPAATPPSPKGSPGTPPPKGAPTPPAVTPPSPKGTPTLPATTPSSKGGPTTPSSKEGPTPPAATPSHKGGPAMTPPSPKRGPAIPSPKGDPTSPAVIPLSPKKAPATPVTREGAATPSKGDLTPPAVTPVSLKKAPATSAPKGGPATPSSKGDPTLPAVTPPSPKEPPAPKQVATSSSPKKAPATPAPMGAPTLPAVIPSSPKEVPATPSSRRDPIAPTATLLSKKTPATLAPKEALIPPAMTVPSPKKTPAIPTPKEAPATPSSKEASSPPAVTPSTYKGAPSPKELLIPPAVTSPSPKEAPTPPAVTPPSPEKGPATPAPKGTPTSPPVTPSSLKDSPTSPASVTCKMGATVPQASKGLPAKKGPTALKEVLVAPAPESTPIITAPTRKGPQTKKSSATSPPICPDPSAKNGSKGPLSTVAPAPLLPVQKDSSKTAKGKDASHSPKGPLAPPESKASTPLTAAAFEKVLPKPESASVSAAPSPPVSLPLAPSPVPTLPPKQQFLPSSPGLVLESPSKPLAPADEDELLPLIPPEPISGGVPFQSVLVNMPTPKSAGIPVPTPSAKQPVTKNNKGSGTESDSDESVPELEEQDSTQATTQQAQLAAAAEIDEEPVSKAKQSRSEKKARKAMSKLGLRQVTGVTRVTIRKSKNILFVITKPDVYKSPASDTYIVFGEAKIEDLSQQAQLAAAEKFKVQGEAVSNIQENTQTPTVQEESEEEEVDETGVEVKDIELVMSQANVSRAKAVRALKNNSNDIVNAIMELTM
UniProt O76041: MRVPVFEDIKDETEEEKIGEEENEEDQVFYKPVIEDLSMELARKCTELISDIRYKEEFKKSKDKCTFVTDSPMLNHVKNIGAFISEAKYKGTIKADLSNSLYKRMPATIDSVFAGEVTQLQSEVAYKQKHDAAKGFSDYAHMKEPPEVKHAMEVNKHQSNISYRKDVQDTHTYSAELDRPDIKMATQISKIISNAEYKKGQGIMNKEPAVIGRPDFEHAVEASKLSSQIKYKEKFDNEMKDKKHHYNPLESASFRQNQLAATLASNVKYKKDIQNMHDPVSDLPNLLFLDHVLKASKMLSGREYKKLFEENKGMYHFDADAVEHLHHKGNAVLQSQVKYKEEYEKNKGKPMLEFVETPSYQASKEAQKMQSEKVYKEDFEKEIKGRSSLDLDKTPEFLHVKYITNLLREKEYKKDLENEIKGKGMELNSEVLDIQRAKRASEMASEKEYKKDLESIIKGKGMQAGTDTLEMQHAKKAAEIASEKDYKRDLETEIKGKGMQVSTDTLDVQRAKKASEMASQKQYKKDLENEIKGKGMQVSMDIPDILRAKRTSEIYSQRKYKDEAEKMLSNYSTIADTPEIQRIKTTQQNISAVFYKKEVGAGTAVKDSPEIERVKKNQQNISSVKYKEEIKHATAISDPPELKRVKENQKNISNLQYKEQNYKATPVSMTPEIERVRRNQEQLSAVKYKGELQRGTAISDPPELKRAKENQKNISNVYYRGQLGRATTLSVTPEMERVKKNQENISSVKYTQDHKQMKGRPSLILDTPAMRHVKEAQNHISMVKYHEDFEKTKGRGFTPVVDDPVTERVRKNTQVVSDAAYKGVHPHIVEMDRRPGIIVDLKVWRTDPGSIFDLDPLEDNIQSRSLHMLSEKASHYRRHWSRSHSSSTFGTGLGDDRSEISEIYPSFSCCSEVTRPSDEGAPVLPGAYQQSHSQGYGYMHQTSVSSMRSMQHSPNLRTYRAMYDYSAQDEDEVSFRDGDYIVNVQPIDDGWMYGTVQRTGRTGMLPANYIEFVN
UniProt Q9NXR1: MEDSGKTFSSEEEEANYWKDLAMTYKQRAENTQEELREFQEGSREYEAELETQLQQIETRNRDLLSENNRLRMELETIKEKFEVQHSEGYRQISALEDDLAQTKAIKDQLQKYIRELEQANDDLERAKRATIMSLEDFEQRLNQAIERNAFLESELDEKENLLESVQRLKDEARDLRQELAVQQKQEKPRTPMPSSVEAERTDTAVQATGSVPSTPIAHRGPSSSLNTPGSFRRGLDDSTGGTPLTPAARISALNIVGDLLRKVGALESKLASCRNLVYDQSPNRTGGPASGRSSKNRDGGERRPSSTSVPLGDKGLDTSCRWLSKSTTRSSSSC
UniProt O43676, whole entry, looked up: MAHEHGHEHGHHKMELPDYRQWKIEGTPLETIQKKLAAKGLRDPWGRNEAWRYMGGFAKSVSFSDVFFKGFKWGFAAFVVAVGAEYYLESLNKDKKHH
UniProt Q4G0N4: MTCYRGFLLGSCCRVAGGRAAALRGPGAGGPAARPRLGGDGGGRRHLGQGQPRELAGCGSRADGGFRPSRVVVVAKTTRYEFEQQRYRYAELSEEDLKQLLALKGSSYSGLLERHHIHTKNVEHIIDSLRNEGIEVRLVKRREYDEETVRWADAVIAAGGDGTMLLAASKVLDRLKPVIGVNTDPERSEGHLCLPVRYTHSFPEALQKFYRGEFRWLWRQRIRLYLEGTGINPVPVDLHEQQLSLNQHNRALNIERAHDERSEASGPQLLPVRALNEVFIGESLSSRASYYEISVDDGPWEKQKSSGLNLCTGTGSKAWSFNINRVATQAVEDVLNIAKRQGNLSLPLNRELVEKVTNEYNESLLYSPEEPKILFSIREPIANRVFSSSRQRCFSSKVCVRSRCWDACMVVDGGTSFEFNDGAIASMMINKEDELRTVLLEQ
UniProt Q16718, whole entry, looked up: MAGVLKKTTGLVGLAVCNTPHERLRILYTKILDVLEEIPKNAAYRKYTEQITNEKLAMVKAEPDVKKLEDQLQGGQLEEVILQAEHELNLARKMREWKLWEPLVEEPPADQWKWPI
UniProt O95168, whole entry, looked up: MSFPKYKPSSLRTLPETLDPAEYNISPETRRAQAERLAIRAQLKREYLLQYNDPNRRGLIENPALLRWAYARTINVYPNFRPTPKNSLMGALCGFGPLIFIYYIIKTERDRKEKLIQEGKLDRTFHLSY
UniProt O95544: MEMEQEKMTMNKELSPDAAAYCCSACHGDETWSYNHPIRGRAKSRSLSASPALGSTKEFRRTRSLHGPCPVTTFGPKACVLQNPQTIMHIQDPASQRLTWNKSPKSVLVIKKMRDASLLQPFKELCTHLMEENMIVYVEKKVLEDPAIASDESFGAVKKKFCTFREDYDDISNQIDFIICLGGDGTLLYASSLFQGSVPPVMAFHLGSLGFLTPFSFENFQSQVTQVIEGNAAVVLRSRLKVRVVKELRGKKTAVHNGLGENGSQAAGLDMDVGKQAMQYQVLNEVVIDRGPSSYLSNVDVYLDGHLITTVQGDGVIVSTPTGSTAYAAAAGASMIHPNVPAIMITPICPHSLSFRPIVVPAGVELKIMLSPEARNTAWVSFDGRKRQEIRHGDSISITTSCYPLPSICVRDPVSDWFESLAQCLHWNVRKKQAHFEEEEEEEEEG
UniProt Q68D85: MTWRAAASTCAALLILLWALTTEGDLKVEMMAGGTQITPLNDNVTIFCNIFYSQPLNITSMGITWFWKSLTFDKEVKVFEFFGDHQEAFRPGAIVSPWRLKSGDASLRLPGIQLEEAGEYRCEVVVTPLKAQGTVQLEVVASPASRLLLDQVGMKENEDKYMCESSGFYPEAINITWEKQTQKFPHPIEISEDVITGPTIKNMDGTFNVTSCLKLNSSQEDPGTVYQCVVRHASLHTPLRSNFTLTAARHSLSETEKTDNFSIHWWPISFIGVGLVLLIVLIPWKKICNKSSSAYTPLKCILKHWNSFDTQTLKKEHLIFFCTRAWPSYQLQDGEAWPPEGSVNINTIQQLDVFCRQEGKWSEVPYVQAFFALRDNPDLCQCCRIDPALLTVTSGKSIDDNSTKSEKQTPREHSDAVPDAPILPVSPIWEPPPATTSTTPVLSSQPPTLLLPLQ
UniProt Q9Y5N5: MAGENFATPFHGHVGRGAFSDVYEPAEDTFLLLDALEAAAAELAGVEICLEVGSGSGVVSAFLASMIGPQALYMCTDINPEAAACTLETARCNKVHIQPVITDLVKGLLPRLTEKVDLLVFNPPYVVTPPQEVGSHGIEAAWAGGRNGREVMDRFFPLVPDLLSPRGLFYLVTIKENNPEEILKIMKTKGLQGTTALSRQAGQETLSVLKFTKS
UniProt O75306, whole entry, looked up: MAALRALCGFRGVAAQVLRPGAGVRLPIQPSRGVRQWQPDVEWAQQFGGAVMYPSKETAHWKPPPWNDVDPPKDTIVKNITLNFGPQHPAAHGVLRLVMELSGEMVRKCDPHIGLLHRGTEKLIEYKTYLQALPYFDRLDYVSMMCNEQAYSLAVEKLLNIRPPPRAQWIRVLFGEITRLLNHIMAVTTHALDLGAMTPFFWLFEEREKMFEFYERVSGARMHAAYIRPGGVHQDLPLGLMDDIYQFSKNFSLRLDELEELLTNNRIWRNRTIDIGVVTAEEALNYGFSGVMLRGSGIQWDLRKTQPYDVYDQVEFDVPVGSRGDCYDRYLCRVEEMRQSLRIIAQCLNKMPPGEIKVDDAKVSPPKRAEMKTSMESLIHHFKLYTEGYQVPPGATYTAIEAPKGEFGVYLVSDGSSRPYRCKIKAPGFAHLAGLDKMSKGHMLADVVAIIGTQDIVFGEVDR

[1] = compound: C/C(=N\NC(=O)C1=CC(=CC=C1)S(=O)(=O)N2CCOCC2)/C3=C(C=CC(=C3)Cl)O
In short: as §1

[2] = compound: C1=CC(=C(C=C1Cl)C2=NC3=NC=CN=C3C(=N2)NC4=CC=NC=C4)F
In short: as §1

[3] = compound: C1=CC(=CC=C1C2=NC3=C(N2)C=C(C=C3)C(=O)N)OC4=CC=C(C=C4)Cl
In short: as §1

[4] = compound: C1=CC2=C(C=CC(=C2)/C=C\3/C(=O)NC(=NCC4=CC=CS4)S3)N=C1
In short: as §1

[5] = compound: C1=CC2=NC=CN=C2C=C1/C=C/3\C(=O)NC(=O)S3
In short: as §1

[6] = compound: C1=CC=C(C=C1)C2=NC(=C(N2)C3=CC=NC=C3)C4=CC(=C(C=C4)Cl)O
In short: as §1

[7] = compound: C1=CC=C2C(=C1)C3=NNC4=CC=CC(=C43)C2=O
In short: as §1

[8] = compound: C1CCN(C1)C(=O)NC2=CC=CC(=C2)NC3=NC=C(C(=N3)NCCC4=CN=CN4)Br
In short: as §1

[9] = compound: C1CN(CCC1(CC2=CC=C(C=C2)Cl)N)C3=NC=NC4=C3C=CN4
In short: as §1

IRAK-1-4 Inhibitor I = compound: C1COCCN1CCN2C3=CC=CC=C3N=C2NC(=O)C4=CC(=CC=C4)[N+](=O)[O-] [IRAK-1-4 Inhibitor I]
In short: as §1

ibrutinib = compound: C=CC(=O)N1CCC[C@@H](n2nc(-c3ccc(Oc4ccccc4)cc3)c3c(N)ncnc32)C1 [ibrutinib]
In short: as §1

[10] = compound: CC(=O)c1cnc2ccc(-c3cc(Cl)c(O)c(Cl)c3)nc2c1N[C@H]1CC[C@H](CN(C)C)CC1
In short: as §1

ralimetinib = compound: CC(C)(C)Cn1c(N)nc2ccc(-c3[nH]c(C(C)(C)C)nc3-c3ccc(F)cc3)nc21 [ralimetinib]
In short: as §1

[11] = compound: CC(C)(O)CC(=O)NCCn1ccc2ncnc(Nc3ccc(Oc4cccc(C(F)(F)F)c4)c(Cl)c3)c21
In short: as §1

[12] = compound: CC(C)C1=C2N=C(C=C(N2N=C1)NCC3=CC=CC=C3)NCCCCCCN
In short: as §1

[13] = compound: CC(C)C[C@@H](C=O)NC(=O)[C@H](CC(C)C)NC(=O)[C@H](CC(C)C)NC(=O)OCc1ccccc1
In short: as §1

pinometostat = compound: CC(C)N(C[C@H]1O[C@@H](n2cnc3c(N)ncnc32)[C@H](O)[C@@H]1O)[C@H]1C[C@@H](CCc2nc3cc(C(C)(C)C)ccc3[nH]2)C1 [pinometostat]
In short: as §1

[14] = compound: CC1=C(C(CC(=O)N1)C2=CC=C(C=C2)C(F)(F)F)C(=O)NC3=C(C=C4C(=C3)C=NN4)F
In short: as §1

[15] = compound: CC1=C(C2=C(C=C1)C(=O)C3=CC=CC=C3N2CCCN)C
In short: as §1

Measured: log2 fold change

NDUFA2 (UniProt O43678)
inactive: erlotinib -0.048 | [1] 0.02 | [2] 0.22 | [3] -0.022 | [4] 0.098 | [5] 0.012 | [6] 0.044 | [7] -0.008 | [8] -0.021 | [9] 0.043 | IRAK-1-4 Inhibitor I 0.027 | ibrutinib -0.025 | [10] -0.007 | ralimetinib -0.064 | [11] -0.127 | [12] 0.045 | [13] 0.116 | pinometostat 0.032 | [14] -0.041 | [15] 0.233

NDUFV3 isoform 2 (UniProt P56181)
inactive: erlotinib -0.05 | [1] -0.078 | [2] -0.02 | [3] 0.038 | [4] -0.051 | [5] 0.03 | [6] -0.048 | [7] -0.028 | [8] 0.044 | [9] 0.041 | IRAK-1-4 Inhibitor I 0.059 | ibrutinib 0.04 | [10] 0.035 | ralimetinib -0.004 | [11] 0.012 | [12] 0.11 | [13] 0.167 | pinometostat 0 | [14] 0.043 | [15] -0.056

NDUFC2 (UniProt O95298)
inactive: erlotinib -0.019 | [1] 0.136 | [2] 0.117 | [3] 0.007 | [4] 0.071 | [5] 0.087 | [6] -0.017 | [7] -0.004 | [8] 0.011 | [9] -0.012 | IRAK-1-4 Inhibitor I -0.112 | ibrutinib -0.018 | [10] 0.005 | ralimetinib -0.158 | [11] -0.066 | [12] -0.105 | [13] 0.104 | pinometostat -0.076 | [14] 0.026 | [15] 0.053

NAP1L5 (UniProt Q96NT1)
inactive: erlotinib -0.054 | [1] -0.007 | [2] 0.004 | [3] 0.04 | [4] -0.05 | [5] 0.068 | [6] -0.062 | [7] -0.048 | [8] -0.015 | [9] 0.084 | IRAK-1-4 Inhibitor I 0.04 | ibrutinib -0.116 | [10] 0.053 | ralimetinib -0.06 | [11] -0.023 | [12] 0.078 | [13] 0.003 | pinometostat -0.115 | [14] 0.02 | [15] -0.16

NACA (UniProt E9PAV3)
inactive: erlotinib 0.031 | [1] -0.061 | [2] 0 | [3] 0.001 | [4] 0.006 | [5] 0.011 | [6] -0.008 | [7] -0.006 | [8] 0.028 | [9] 0.068 | IRAK-1-4 Inhibitor I 0.063 | ibrutinib 0.015 | [10] -0.029 | ralimetinib -0.031 | [11] 0.028 | [12] 0.086 | [13] 0.019 | pinometostat -0.03 | [14] 0.014 | [15] -0.042

NEBL isoform 2 (UniProt O76041)
inactive: erlotinib 0.074 | [1] -0.04 | [2] 0.024 | [3] -0.011 | [4] 0.028 | [5] 0.031 | [6] 0.003 | [7] -0.063 | [8] 0.046 | [9] 0.034 | IRAK-1-4 Inhibitor I 0.015 | ibrutinib 0.012 | [10] -0.013 | ralimetinib 0.017 | [11] 0.014 | [12] 0.036 | [13] 0.009 | pinometostat -0.065 | [14] 0.006 | [15] 0.004

NDE1 isoform 1 (UniProt Q9NXR1)
inactive: erlotinib -0.01 | [1] -0.01 | [2] 0.005 | [3] 0.001 | [4] 0.04 | [5] 0.076 | [6] -0.016 | [7] 0.023 | [8] -0.004 | [9] 0.012 | IRAK-1-4 Inhibitor I 0.025 | ibrutinib -0.003 | [10] -0.031 | ralimetinib -0.031 | [11] -0.01 | [12] 0.003 | [13] 0.072 | pinometostat -0.012 | [14] 0.04 | [15] 0.007

NDUFB3 (UniProt O43676)
inactive: erlotinib -0.046 | [1] 0.028 | [2] -0.002 | [3] -0.033 | [4] -0.018 | [5] 0.036 | [6] 0.01 | [7] -0.054 | [8] 0.046 | [9] 0.055 | IRAK-1-4 Inhibitor I 0.027 | ibrutinib 0.031 | [10] -0.009 | ralimetinib -0.08 | [11] 0.05 | [12] -0.062 | [13] -0.028 | pinometostat -0.046 | [14] 0.017 | [15] -0.015

NADK2 (UniProt Q4G0N4)
inactive: erlotinib 0.019 | [1] 0.022 | [2] 0.079 | [3] -0.019 | [4] 0.027 | [5] 0.034 | [6] -0.022 | [7] -0.074 | [8] 0.025 | [9] 0.048 | IRAK-1-4 Inhibitor I 0.05 | ibrutinib 0.026 | [10] -0.009 | ralimetinib -0.026 | [11] -0.016 | [12] 0.023 | [13] 0.016 | pinometostat -0.013 | [14] -0.003 | [15] 0.021

NDUFA5 (UniProt Q16718)
inactive: erlotinib 0.049 | [1] 0.016 | [2] 0.15 | [3] 0.022 | [4] 0.111 | [5] 0.04 | [6] 0.055 | [7] 0.085 | [8] -0.022 | [9] -0.005 | IRAK-1-4 Inhibitor I -0.017 | ibrutinib 0.011 | [10] -0.079 | ralimetinib -0.09 | [11] -0.155 | [12] 0.064 | [13] 0.003 | pinometostat -0.06 | [14] 0.021 | [15] 0.216

NDUFB4 (UniProt O95168)
inactive: erlotinib -0.016 | [1] -0.043 | [2] 0.015 | [3] 0.045 | [4] -0.019 | [5] -0.079 | [6] 0.019 | [7] 0.005 | [8] 0.019 | [9] -0.004 | IRAK-1-4 Inhibitor I 0.014 | ibrutinib 0.05 | [10] 0.02 | ralimetinib -0.03 | [11] -0.083 | [12] -0.065 | [13] 0.084 | pinometostat -0.048 | [14] 0.002 | [15] 0.036

NADK (UniProt O95544)
inactive: erlotinib 0.069 | [1] 0.015 | [2] 0.014 | [3] 0 | [4] -0.015 | [5] 0.01 | [6] -0.013 | [7] -0.022 | [8] 0.024 | [9] 0.074 | IRAK-1-4 Inhibitor I 0.028 | ibrutinib 0.032 | [10] -0.031 | ralimetinib -0.053 | [11] -0.023 | [12] 0.051 | [13] 0.011 | pinometostat -0.055 | [14] 0.012 | [15] -0.008

NCR3LG1 (UniProt Q68D85)
inactive: erlotinib -0.017 | [1] -0.191 | [2] -0.056 | [3] -0.002 | [4] -0.135 | [5] 0.005 | [6] 0.05 | [7] 0.123 | [8] -0.106 | [9] -0.003 | IRAK-1-4 Inhibitor I -0.003 | ibrutinib 0.049 | [10] 0.055 | ralimetinib -0.029 | [11] 0.069 | [12] 0.12 | [13] 0.035 | pinometostat -0.014 | [14] -0.005 | [15] 0.126

Retrieved one by one from the list above (2):
NCR3LG1 (UniProt Q68D85)
inactive: erlotinib -0.017 | [1] -0.191 | [2] -0.056 | [3] -0.002 | [4] -0.135 | [5] 0.005 | [6] 0.05 | [7] 0.123 | [8] -0.106 | [9] -0.003 | IRAK-1-4 Inhibitor I -0.003 | ibrutinib 0.049 | [10] 0.055 | ralimetinib -0.029 | [11] 0.069 | [12] 0.12 | [13] 0.035 | pinometostat -0.014 | [14] -0.005 | [15] 0.126

NADK (UniProt O95544)
inactive: erlotinib 0.069 | [1] 0.015 | [2] 0.014 | [3] 0 | [4] -0.015 | [5] 0.01 | [6] -0.013 | [7] -0.022 | [8] 0.024 | [9] 0.074 | IRAK-1-4 Inhibitor I 0.028 | ibrutinib 0.032 | [10] -0.031 | ralimetinib -0.053 | [11] -0.023 | [12] 0.051 | [13] 0.011 | pinometostat -0.055 | [14] 0.012 | [15] -0.008

Remaining list, next part

N6AMT1 (UniProt Q9Y5N5)
inactive: erlotinib 0.014 | [1] 0.068 | [2] 0.03 | [3] 0.043 | [4] 0.108 | [5] -0.017 | [6] -0.01 | [7] 0.055 | [8] -0.057 | [9] -0.001 | IRAK-1-4 Inhibitor I -0.107 | ibrutinib -0.042 | [10] -0.054 | ralimetinib -0.118 | [11] 0.026 | [12] 0.054 | [13] 0.034 | pinometostat -0.123 | [14] 0.01 | [15] 0.203

NCALD (UniProt P61601)
inactive: erlotinib 0.117 | [1] 0.04 | [2] -0.007 | [3] -0.023 | [4] 0.028 | [5] 0.02 | [6] -0.001 | [7] 0.075 | [8] 0.045 | [9] 0.078 | IRAK-1-4 Inhibitor I -0.001 | ibrutinib 0.001 | [10] -0.012 | ralimetinib -0.023 | [11] -0.098 | [12] -0.055 | [13] -0.005 | pinometostat 0.055 | [14] -0.047 | [15] -0.04

NDUFS2 (UniProt O75306)
inactive: erlotinib -0.017 | [1] 0.047 | [2] 0.064 | [3] 0.016 | [4] 0.007 | [5] 0.041 | [6] 0.022 | [7] 0.055 | [8] -0.03 | [9] 0 | IRAK-1-4 Inhibitor I 0.013 | ibrutinib 0.022 | [10] -0.014 | ralimetinib -0.036 | [11] -0.154 | [12] -0.084 | [13] -0.032 | pinometostat -0.019 | [14] 0.009 | [15] 0.054
